Laboratory results taken from patent US20230190883A1 (Bessor Pharma, LLC, priority 2020, published 2023).
The same purity stands for every peptide and may come from a single statement.

Assay: general procedure: Fmoc solid-phase peptide synthesis; ChemMatrix Rink Amide resin; Cl-HOBt / diisopropylcarbodiimide (DCI)
Settings: whole synthesis

Question: With “[Ala^220]-Ac-Renalase A (205-240)-CONH2 (KIDVPWAGQYITSNPAIRFVSIDNKKRNIESSEIGP; N-acetyl, C-terminal amide; Based on homo sapiens sequence)” as the substance, how does the “final HPLC purity” value read?
Answer: >95%
